± gives the standard deviation. The entries are a selection whose mix differs from that of the whole data set. Many entries were measured with a wide error.

The subject of the experiment is MILI (PIWIL2) piRISC loaded with L1MC piRNA (26 nt). Briefly: pre-steady-state target cleavage rate (min^-1); MIWI and MILI are mouse PIWI proteins and EfPiwi is from a freshwater sponge; tags in brackets are library labels; higher = faster piRNA-guided slicing of the target. The note with it: guide: L1MC piRNA 5'p-UAACUAAAUACUAUGCAAGCUGUAGG; auxiliary factor: none (no GTSF1). An outline of the steps: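 The pre-steady-state cleavage rate was obtained by Cleave-'n-Seq with a burst-and-steady-state fit. A transcribed, DNA-blocked target RNA library (0.1 nM) was mixed with 1 nM active affinity-purified piRISC carrying one synthetic guide, with or without 500 nM GTSF1 partner protein, in HEPES–potassium acetate buffer at 33 °C for 0–8 or 0–960 min. Uncleaved targets were sequenced and normalised to depth and to weakly complementary targets, with three trials pooled and k3 capped at 0.0001 min^-1.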
On to UCCUGGAUCAGCUUGCAUACAAUUUAGUUA, for which the “pre-steady-state target cleavage rate” value was 0.0021 ± 0.0029.

As to UCCUGGAACAGCUUGCAUACAUUUUAGUAA, the “pre-steady-state target cleavage rate” value was 0.000951 ± 0.007.

Consider UCCUGGAUGAGCUUGCCAUAGUAUUUAGUUA, for which the “pre-steady-state target cleavage rate” value came to 0.00123 ± 0.006.

Regarding UCCUCCUACAGGAAGCAUAGUAUUUAGAAA, the “pre-steady-state target cleavage rate” value stood at 0.000802 ± 0.0069.

With UCCUGGAUGAGCUUGCAUAGAUUUUAGAAA, the “pre-steady-state target cleavage rate” value came to 0.000414 ± 0.013.

On to UCCUGCUACAGCUUGCAUAGUUAAUACAAA, for which the “pre-steady-state target cleavage rate” value is 0.00109 ± 0.0045.

As for UCCUGCUACAGCUUGCAUAGUAUUAAGAUA, the “pre-steady-state target cleavage rate” value was determined as 0.00127 ± 0.0044.

In the case of UCCUCCUACAGCUUGCAUAGUAAAAUCAAA, the “pre-steady-state target cleavage rate” value was found to be 0.00115 ± 0.0053.

Consider UCCUGGAACAGCUUGCAAUGUAUUUACAAA, for which the “pre-steady-state target cleavage rate” value was found to be 0.000756 ± 0.0083.

For UCCUCCUACAGCUACGAUAGUAUUUUCAAA, the “pre-steady-state target cleavage rate” value stood at 0.000504 ± 0.0082.

With UCCUGCUACAGGAAGCAUAGUAUUUACAAA, the “pre-steady-state target cleavage rate” value is 0.000221 ± 0.012.

For “UCCUGCUACAGCUUGCAUACAUAAAUCAAA [g12:g25:cont:t1A]”, the “pre-steady-state target cleavage rate” value was 0.000873 ± 0.0065.

UCCUGGUACAGCUUGCAUACAAUUUAGAAA: the “pre-steady-state target cleavage rate” value was found to be 0.00151 ± 0.005.

Regarding UCCUGGAUGUCGAAGCAUAGUAUUUAGCUUA, the “pre-steady-state target cleavage rate” value came out at 0.00109 ± 0.0045.

For the sequence UCCUGGUACAGCUUGCAUAGUAAAUAGAAA, the “pre-steady-state target cleavage rate” value was 0.000907 ± 0.0069.

For the sequence UCCUGGAUGUGCUUGCAUAGUAUUUUCAAA, the “pre-steady-state target cleavage rate” value turned out to be 0.000626 ± 0.0079.

Regarding UCCUGGUACAGCUUGCAUACAAUUUAGUUA, the “pre-steady-state target cleavage rate” value turned out to be 0.00451 ± 0.0027.

For UCCUGGAUGAGCUUGCAUAGUAAUUAGAAA, the “pre-steady-state target cleavage rate” value came to 0.00118 ± 0.0053.

For the sequence UCCUGGUACAGCUUCCAUAGUAAUUAGUUA, the “pre-steady-state target cleavage rate” value stood at 0.00123 ± 0.0065.

For the sequence UCCUGGUACAGCUUGCAUAGUAUAAAGAAA, the “pre-steady-state target cleavage rate” value was found to be 0.000903 ± 0.008.

Turning to UCCUGGAUCACGAUGCAUAGUAUUUUCAAA, the “pre-steady-state target cleavage rate” value is 0.00031 ± 0.009.

For UCCUGGAUGUCGAAGCACAGUAUUUAGUUA, the “pre-steady-state target cleavage rate” value is 0.00118 ± 0.0047.

Consider UCCUGGAUGUCGAUGCAUAGCUAUUUAGUUA, for which the “pre-steady-state target cleavage rate” value was 0.000341 ± 0.018.

On to UCCUGGAUGUGCUUGCAUAGUAAAAAGUAA, for which the “pre-steady-state target cleavage rate” value came out at 0.000756 ± 0.006.

For the origin of these results see the supplement of paper PMC10338343.
